For 35 targets, NP40-soluble protein abundance results are on record in the supplement of paper PMC6411743.

Amino acid sequences for entries named in this document (tags omitted). A change or cut given only in a name is not applied to a line headed by its entry.
UniProt Q9H930: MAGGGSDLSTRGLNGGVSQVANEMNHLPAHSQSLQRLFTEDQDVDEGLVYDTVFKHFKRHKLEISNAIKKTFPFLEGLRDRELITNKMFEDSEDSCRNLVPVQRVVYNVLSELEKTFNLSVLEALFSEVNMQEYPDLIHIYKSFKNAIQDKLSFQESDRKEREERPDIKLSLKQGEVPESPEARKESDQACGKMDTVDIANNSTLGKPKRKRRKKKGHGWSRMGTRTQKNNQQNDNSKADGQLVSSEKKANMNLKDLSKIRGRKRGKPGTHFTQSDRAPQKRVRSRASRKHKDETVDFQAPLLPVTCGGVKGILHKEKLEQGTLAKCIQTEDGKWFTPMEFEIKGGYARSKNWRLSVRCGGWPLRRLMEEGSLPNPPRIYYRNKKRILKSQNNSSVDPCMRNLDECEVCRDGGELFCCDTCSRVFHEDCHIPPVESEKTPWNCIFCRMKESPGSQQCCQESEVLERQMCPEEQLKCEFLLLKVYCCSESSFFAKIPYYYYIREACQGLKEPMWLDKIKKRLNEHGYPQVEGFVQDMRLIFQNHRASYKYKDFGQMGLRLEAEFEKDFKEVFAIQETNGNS
UniProt Q9ULV3: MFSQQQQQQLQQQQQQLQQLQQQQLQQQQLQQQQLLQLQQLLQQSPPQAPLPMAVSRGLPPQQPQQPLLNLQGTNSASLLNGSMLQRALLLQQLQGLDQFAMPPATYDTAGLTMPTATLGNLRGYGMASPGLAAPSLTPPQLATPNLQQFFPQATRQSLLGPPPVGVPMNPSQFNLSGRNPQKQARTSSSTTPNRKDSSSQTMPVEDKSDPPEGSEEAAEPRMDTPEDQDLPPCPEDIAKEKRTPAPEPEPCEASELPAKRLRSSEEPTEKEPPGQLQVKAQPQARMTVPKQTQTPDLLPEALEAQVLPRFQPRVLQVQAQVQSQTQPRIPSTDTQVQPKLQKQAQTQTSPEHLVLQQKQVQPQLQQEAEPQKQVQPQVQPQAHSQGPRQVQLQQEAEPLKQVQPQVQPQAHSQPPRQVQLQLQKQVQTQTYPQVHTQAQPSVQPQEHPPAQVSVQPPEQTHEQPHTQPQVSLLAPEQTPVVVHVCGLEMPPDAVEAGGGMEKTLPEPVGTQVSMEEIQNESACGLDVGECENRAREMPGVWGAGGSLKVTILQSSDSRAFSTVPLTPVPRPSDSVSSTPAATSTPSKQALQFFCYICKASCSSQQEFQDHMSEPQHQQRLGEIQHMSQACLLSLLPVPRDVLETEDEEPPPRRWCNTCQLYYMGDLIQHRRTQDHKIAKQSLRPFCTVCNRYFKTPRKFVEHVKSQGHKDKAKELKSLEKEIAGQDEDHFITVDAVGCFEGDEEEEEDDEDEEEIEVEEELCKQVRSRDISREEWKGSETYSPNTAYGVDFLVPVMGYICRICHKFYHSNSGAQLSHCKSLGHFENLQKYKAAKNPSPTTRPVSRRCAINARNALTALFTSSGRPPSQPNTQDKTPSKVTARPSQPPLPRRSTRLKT
UniProt Q93009, whole entry, looked up: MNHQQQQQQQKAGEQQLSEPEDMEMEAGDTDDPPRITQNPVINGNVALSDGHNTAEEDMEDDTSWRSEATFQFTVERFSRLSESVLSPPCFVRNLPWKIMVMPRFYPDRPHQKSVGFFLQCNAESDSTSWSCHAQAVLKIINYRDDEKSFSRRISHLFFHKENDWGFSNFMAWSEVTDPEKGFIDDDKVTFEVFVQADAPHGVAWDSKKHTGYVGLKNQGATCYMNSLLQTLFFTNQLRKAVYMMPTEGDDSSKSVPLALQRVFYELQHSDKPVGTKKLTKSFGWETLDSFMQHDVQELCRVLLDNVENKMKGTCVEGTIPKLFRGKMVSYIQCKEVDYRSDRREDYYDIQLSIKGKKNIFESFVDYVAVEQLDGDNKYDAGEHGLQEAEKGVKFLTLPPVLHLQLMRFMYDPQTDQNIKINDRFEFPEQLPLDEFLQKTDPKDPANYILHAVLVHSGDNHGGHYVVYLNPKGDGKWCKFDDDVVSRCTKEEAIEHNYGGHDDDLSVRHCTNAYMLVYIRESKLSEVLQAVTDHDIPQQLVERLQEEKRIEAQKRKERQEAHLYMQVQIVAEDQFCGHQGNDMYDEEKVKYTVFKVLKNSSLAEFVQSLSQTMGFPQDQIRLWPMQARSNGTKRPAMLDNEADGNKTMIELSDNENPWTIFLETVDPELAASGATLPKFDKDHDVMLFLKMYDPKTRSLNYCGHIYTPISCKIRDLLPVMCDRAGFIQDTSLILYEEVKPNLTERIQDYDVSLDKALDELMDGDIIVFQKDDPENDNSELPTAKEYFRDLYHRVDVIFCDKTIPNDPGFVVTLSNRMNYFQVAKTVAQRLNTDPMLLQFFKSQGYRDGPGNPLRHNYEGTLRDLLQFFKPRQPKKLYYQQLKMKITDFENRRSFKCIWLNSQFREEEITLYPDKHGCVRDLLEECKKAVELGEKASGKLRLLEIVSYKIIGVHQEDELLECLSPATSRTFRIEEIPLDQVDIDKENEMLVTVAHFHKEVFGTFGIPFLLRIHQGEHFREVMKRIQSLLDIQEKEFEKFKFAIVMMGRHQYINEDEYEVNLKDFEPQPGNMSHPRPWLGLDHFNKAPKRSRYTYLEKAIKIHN
UniProt Q9UGJ1, whole entry: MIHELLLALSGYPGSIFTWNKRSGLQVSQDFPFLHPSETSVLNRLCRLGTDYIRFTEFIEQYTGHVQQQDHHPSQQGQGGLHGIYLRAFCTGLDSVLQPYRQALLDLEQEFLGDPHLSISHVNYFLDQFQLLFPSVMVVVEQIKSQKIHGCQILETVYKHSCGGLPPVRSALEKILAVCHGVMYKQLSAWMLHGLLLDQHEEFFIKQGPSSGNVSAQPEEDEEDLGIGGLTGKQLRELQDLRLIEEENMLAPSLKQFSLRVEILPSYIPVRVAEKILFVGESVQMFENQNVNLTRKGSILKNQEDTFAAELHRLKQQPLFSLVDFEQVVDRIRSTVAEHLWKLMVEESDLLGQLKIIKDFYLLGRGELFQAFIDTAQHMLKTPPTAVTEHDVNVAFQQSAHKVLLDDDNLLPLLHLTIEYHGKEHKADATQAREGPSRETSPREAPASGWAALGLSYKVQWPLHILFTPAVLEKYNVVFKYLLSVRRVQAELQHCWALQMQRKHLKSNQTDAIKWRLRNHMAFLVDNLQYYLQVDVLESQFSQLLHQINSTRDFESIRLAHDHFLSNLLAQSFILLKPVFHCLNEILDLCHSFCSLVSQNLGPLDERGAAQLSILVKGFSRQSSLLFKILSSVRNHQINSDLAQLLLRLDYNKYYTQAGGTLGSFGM
UniProt O43414: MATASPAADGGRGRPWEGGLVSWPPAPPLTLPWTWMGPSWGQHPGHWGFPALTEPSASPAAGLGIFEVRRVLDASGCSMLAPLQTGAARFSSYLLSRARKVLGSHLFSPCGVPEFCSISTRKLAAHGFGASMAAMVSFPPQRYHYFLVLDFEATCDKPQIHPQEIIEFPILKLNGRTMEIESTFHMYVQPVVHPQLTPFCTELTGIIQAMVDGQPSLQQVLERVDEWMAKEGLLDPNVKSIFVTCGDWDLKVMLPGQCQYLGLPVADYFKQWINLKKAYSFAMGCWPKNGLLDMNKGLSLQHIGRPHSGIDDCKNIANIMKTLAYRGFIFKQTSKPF
UniProt Q99848: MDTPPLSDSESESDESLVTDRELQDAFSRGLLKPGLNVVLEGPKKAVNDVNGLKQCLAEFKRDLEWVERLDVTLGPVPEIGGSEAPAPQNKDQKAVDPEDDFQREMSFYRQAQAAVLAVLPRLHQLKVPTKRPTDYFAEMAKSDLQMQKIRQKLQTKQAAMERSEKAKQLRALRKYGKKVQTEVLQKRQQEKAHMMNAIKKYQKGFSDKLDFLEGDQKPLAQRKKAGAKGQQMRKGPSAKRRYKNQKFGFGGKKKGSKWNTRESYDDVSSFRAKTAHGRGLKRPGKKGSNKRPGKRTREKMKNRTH
UniProt P60510: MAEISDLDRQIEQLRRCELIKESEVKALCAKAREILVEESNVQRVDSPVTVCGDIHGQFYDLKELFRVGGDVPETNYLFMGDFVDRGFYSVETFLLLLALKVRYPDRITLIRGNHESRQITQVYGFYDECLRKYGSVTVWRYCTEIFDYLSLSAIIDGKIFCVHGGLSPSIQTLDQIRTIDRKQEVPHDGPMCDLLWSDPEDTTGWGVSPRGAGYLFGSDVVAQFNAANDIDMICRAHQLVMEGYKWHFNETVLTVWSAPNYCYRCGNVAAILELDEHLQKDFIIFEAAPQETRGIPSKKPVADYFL
UniProt Q13620, whole entry: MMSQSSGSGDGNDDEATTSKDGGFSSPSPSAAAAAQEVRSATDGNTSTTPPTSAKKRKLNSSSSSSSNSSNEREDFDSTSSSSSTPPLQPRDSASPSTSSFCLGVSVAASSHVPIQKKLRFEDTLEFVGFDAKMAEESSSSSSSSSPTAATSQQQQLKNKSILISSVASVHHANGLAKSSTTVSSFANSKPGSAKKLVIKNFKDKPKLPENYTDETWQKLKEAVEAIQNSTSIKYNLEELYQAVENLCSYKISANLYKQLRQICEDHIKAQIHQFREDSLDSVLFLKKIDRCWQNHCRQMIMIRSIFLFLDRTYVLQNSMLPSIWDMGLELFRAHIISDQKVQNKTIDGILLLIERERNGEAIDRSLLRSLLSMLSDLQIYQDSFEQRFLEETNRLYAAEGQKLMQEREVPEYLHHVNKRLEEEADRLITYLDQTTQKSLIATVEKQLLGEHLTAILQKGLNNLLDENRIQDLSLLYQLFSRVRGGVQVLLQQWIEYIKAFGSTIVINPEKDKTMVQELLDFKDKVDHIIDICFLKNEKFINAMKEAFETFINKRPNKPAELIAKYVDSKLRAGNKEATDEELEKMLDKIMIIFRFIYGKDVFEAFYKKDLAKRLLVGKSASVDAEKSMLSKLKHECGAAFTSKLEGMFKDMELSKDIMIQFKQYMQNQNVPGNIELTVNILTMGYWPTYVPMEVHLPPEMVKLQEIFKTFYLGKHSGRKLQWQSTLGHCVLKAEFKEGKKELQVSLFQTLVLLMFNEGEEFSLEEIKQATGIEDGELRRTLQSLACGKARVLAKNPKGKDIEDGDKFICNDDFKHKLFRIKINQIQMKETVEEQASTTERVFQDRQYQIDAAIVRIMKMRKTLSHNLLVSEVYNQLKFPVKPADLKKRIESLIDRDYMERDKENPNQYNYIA
UniProt O95166, whole entry: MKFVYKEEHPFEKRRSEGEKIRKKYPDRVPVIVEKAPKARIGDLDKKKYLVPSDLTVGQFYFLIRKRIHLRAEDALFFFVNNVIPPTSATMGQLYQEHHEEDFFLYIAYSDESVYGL
UniProt Q96PV7: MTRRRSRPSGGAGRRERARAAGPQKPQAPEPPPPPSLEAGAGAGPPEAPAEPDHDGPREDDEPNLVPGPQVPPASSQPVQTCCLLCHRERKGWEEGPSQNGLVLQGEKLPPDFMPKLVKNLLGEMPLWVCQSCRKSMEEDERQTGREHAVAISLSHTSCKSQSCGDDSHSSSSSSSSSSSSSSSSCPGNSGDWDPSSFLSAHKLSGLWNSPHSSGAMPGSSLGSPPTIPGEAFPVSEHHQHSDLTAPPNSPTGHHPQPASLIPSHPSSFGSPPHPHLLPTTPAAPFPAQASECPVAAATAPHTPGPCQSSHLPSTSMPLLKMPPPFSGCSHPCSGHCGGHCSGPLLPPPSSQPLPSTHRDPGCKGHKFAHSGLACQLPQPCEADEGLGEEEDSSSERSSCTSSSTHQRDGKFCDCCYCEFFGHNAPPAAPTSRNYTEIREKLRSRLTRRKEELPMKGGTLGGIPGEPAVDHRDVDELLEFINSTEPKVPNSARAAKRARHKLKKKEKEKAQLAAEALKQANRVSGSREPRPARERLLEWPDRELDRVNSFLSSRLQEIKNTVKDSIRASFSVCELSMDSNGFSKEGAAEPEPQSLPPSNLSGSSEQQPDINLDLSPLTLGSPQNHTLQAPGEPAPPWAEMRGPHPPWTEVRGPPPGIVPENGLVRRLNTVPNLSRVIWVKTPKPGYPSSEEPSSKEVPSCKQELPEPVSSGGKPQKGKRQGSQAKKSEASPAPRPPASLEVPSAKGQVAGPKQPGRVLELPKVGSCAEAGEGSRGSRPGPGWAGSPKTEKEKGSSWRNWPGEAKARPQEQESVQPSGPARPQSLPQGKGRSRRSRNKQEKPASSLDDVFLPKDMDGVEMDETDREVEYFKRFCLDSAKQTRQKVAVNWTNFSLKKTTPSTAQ
UniProt Q99933: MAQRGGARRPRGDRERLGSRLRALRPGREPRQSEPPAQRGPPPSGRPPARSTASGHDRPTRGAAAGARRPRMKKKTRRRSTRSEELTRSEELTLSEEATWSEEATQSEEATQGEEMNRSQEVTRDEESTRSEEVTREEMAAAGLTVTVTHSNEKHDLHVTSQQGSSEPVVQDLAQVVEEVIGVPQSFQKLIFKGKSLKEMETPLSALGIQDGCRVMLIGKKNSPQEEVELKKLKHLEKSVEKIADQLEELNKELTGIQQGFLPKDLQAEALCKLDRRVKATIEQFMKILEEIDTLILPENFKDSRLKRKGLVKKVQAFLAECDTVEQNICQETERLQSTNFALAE

± gives the standard deviation of the averaged measurements. The entries are a selection whose mix differs from that of the whole data set.

Compound in this experiment: Nc1ncnc2c1ncn2[C@@H]1O[C@H](COP(=O)(O)OP(=O)(O)OP(=O)(O)O)[C@@H](O)[C@H]1O [adenosine triphosphate]
The experiment is described as follows: NP40-soluble protein abundance relative to vehicle (solubility fold change) (ratio); higher = more soluble protein in presence of ATP. The conditions noted are these: concentration: 10mM. A digest of the protocol: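 Jurkat crude lysate prepared with a Dounce homogeniser was treated at eight concentrations spanning 0.1 to 10 mM, 10 min at room temperature then 3 min at 37 °C. Solubilisation with 0.8% NP40 and benzonase and ultracentrifugation preceded TMT labelling of the supernatant for LC-MS/MS. Fold change against the detergent-processed vehicle was determined per replicate from vsn-normalised intensities, across three independent experiments.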
As to “H7BYP4 and related entries (UniProt Q9H930)”, the NP40-soluble protein abundance worked out at 0.985 ± 0.14. In the case of “J3QRU1 and related entries (UniProt P07947)” it was 1.01 ± 0.066. “H0Y5D5 and related entries (UniProt Q9ULV3)”: the NP40-soluble protein abundance worked out at 0.9573 ± 0.0065.

Regarding UniProt I3L0E3, the NP40-soluble protein abundance is 0.864 ± 0.05.

“H0Y360 and related entries (UniProt Q01433)”: the NP40-soluble protein abundance came out at 0.952 ± 0.046. Consider “H3BQD1 and related entries (UniProt Q93009)”, for which the NP40-soluble protein abundance worked out at 1 ± 0.077. Take “H3BPU4 and related entries (UniProt Q9UGJ1)”: the NP40-soluble protein abundance was found to be 1.18 ± 0.13.

As for “H0Y4B0 and related entries (UniProt O43414)”, the NP40-soluble protein abundance was determined as 1.01 ± 0.037. In the case of “K7EPA3 and related entries (UniProt Q9NX61)”, the NP40-soluble protein abundance came out at 0.937 ± 0.063. With “J3KQJ1 and related entries (UniProt Q8NBJ7)”, the NP40-soluble protein abundance was found to be 0.912 ± 0.032.

Take “M0QX46 and related entries (UniProt Q6UUV9)”: the NP40-soluble protein abundance was found to be 0.9412 ± 0.008.

With “I3L121 and related entries (UniProt Q96AJ1)”, the NP40-soluble protein abundance came out at 1.04 ± 0.14. Turning to “I3L4C2 and related entries (UniProt Q9UQB8)”, the NP40-soluble protein abundance turned out to be 0.918 ± 0.021. The figure for “K7EL68 and related entries (UniProt Q16543)” is 0.9204 ± 0.0065. “H7C3H7 and related entries (UniProt Q12873)”: the NP40-soluble protein abundance turned out to be 1.4 ± 0.065. “H7C2Q8 and related entries (UniProt Q99848)”: the NP40-soluble protein abundance was found to be 1.19 ± 0.24.

Regarding “I3L2C7 and related entries (UniProt P57678)”, the NP40-soluble protein abundance is 1.01 ± 0.12. For the target L0R819 (UniProt Q9NWL6), the NP40-soluble protein abundance stood at 0.919 ± 0.096. Consider “H0Y997 and related entries (UniProt Q96J42)”, for which the NP40-soluble protein abundance stood at 0.813 ± 0.053. Turning to “H3BTA2 and related entries (UniProt P60510)”, the NP40-soluble protein abundance is 1.01 ± 0.021.

Take “J3KNP4 and related entries (UniProt Q9NPR2)”: the NP40-soluble protein abundance came out at 0.944 ± 0.1. In the case of “K4DI93 and related entries (UniProt Q13620)” it was 0.945 ± 0.043; in that of “K7EKE6 and related entries (UniProt P36776)”, 0.984 ± 0.054; in that of “H0Y860 and related entries (UniProt Q9P246)”, 1.03 ± 0.069. On to “K7EQ37 and related entries (UniProt Q70J99)”, for which the NP40-soluble protein abundance stood at 0.987 ± 0.052.

In the case of “K7ER53 and related entries (UniProt O95644)”, the NP40-soluble protein abundance was found to be 1.02 ± 0.1. The figure for “H7C1Z7 and related entries (UniProt Q9GZU7)” is 1.06 ± 0.11. As to “H0Y8W3 and related entries (UniProt O43566)”, the NP40-soluble protein abundance was 0.981 ± 0.027. The figure for “I3L3K5 and related entries (UniProt O95476)” is 0.957 ± 0.069; for “H0YK61 and related entries (UniProt Q5J8M3)” it is 1 ± 0.081. As for “H6UMI1 and related entries (UniProt O95166)”, the NP40-soluble protein abundance turned out to be 0.913 ± 0.056.

Consider “H0YCX2 and related entries (UniProt Q96PV7)”, for which the NP40-soluble protein abundance came out at 1.39 ± 0.12.

As to “H0YIE9 and related entries (UniProt O94952)”, the NP40-soluble protein abundance amounted to 1.05 ± 0.08.

Take “J3QTA2 and related entries (UniProt Q99933)”: the NP40-soluble protein abundance is 1.02 ± 0.053. The figure for “J3KSB5 and related entries (UniProt P21359)” is 1.06 ± 0.03.
